# Laboratory results as given in paper PMC7819943, “Rice protein-binding microarrays: a tool to detect cis-acting elements near promoter regions in rice”.
# The other results are listed elsewhere or left out.
# Target: T1, OsSMF1 (Oryza sativa, UniProt Q6ZLB0 1-436)
# T1 sequence: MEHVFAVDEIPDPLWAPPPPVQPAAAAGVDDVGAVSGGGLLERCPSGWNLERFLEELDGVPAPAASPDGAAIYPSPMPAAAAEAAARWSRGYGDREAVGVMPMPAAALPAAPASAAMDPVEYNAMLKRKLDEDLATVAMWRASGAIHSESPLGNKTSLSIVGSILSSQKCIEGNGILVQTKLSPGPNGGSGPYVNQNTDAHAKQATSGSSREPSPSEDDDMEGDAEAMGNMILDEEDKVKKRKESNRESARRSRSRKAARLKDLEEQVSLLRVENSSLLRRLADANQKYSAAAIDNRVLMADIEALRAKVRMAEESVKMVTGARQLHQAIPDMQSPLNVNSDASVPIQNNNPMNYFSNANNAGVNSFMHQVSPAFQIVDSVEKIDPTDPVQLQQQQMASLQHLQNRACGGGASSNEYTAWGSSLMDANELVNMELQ
# Assay: protein-binding microarray (RPBM); PBS, 2% BSA, 51.3 ng/ul salmon testes DNA, 50 uM zinc acetate, 200 nM TF, 25 C, 1 h; high values mean tight binding
# Conditions: protein: recombinant; tags: N-terminal polyhistidine and DsRed monomer fusion (pET32a); chain copies: 2; label: CyDye5-dUTP incorporated in the synthesized complementary strand; 3' TTTTT single-stranded linker to array surface; dsDNA, one strand shown
# Outline: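 In PBS with 2% BSA, salmon testes DNA and 50 µM zinc acetate, 200 nM protein was incubated on a custom Agilent array at 25 °C for 1 h and then washed off. The array had been made double-stranded by primer extension with Cy5-dUTP and blocked with 2% BSA. The proteins were transcription factors fused N-terminally to polyhistidine and DsRed, expressed in E. coli BL21-CodonPlus and purified on Ni–NTA. The binding signal is per-feature fluorescence intensity (arbitrary units) from an Axon 4000B scanner.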
row,Sequence,binding signal
1,TTATGCCAGCTATTGCCGCAATTCCCTCCTCTTATCTCAACGGAGTCACCTAGTGCAG,5930 fluorescence intensity (a.u.)
2,GCGCCGGAACACCACCCTGATCTACTCAGCCGCGGCCGCCCGGAGTCACCTAGTGCAG,3710 fluorescence intensity (a.u.)
3,CGCGTCCTCCGCTCCACTGCACGTAAGCCCGTGCGATGCGCGGAGTCACCTAGTGCAG,4080 fluorescence intensity (a.u.)
4,TGAATCTATACACTCTTCTATTCAGATTCGTTGTACTATGCGGAGTCACCTAGTGCAG,3870 fluorescence intensity (a.u.)
5,CAATTTACAAATTTATCACATTATCATCGCGTCGATTATACGGAGTCACCTAGTGCAG,3160 fluorescence intensity (a.u.)
6,AGGTTGGCCCAGCCTTGGCGTCATCTTCGTCTTCCCCAGCCGGAGTCACCTAGTGCAG,4020 fluorescence intensity (a.u.)
7,TATATATGCACCGAGACACATATGAATCATCACACGTCTTCGGAGTCACCTAGTGCAG,3550 fluorescence intensity (a.u.)
8,TCGGCCACTAGCATTTCGCCACGTGGACCGGACGCTCTGGCGGAGTCACCTAGTGCAG,15900 fluorescence intensity (a.u.)
9,AGTTGCACTGTAATTATAGTGTAATTACGTGTAGTAACACCGGAGTCACCTAGTGCAG,4630 fluorescence intensity (a.u.)
10,GCCGCCCGTCGCCGTCACACCCCTCTCACCACCACCACCACGGAGTCACCTAGTGCAG,3150 fluorescence intensity (a.u.)
11,TTGGAGACGCGTCCCGTGACGTCATCGTCGTCCCCGACTCCGGAGTCACCTAGTGCAG,20000 fluorescence intensity (a.u.)
12,TATAACAATTGTTTTATATTGCCACATATGGTGAGAAGCGCGGAGTCACCTAGTGCAG,6660 fluorescence intensity (a.u.)
13,GCCTCTTAGCCCACGTGCGCCCTCCCGCGTCTCGCCCAAGCGGAGTCACCTAGTGCAG,4530 fluorescence intensity (a.u.)
14,AAAAGCAAAAGCAAAAGAAACACGTCCTTATTCCTCTCTCCGGAGTCACCTAGTGCAG,3910 fluorescence intensity (a.u.)
15,GCTATAAGTGTGTTGCCTACGTAGAATGCCACATCGGCCACGGAGTCACCTAGTGCAG,9120 fluorescence intensity (a.u.)
16,AGAAAGAGGAGACTGACGTTGACATGTCAGCTGACATGTACGGAGTCACCTAGTGCAG,5560 fluorescence intensity (a.u.)
17,ATGGTTGTGATTTGTTTAGGTCGAGTAAAGGAGGAATTCCCGGAGTCACCTAGTGCAG,3240 fluorescence intensity (a.u.)
18,TAATTCTTCATGGTGTAATGCTTTATAAATTGTGTCATCTCGGAGTCACCTAGTGCAG,3230 fluorescence intensity (a.u.)
19,GCTTCTGCCTCCGGCGACACGTATGTCCATCTATCTCGCCCGGAGTCACCTAGTGCAG,10300 fluorescence intensity (a.u.)
20,ATAACTCGCATGCTAACTTGAGACGATTGGACTCCTAACTCGGAGTCACCTAGTGCAG,32500 fluorescence intensity (a.u.)
21,TATTTTGTTATTTGTTGACGTGTATTTTAAAGAATGACTTCGGAGTCACCTAGTGCAG,9880 fluorescence intensity (a.u.)

row,Sequence,binding signal
1,CCTTGTAACACTCGACCATAATCTCACACACAGGAGTAGGCGGAGTCACCTAGTGCAG,3600 fluorescence intensity (a.u.)
2,TACAATAGGGACCCATCTGGTGTGTGCAGCGGCGCTCGTGCGGAGTCACCTAGTGCAG,3560 fluorescence intensity (a.u.)
3,ATTCGTCTCATAATTTACACGCAATCCGTGTAATTAATTACGGAGTCACCTAGTGCAG,3680 fluorescence intensity (a.u.)
4,CTTCAGCAGCGAAGCCGGTGACAGTCACGCTTTTATTTACCGGAGTCACCTAGTGCAG,3460 fluorescence intensity (a.u.)
5,CACGCATAGAATACGTGTGTAGAGTATAGACACACACGTACGGAGTCACCTAGTGCAG,3300 fluorescence intensity (a.u.)
6,GTTGGGAGGTAGCCGTCAGCACCCACCCTCACTTTCGGCGCGGAGTCACCTAGTGCAG,5840 fluorescence intensity (a.u.)
7,TCCGTCTCATTCATCACTAATCTATCTAAACTAAAGCCGACGGAGTCACCTAGTGCAG,3690 fluorescence intensity (a.u.)
8,ACGCGCGAACGCCCGTCCGTTAAACCCACTCACCGCCATGCGGAGTCACCTAGTGCAG,3280 fluorescence intensity (a.u.)
9,ACCAGCCCATACGCGTGTACGGACCACAATTGCGGCCTTACGGAGTCACCTAGTGCAG,4360 fluorescence intensity (a.u.)
10,TGCGTATGATCCATACCCGATATAATGCGCGTAGACACAACGGAGTCACCTAGTGCAG,3560 fluorescence intensity (a.u.)
11,GCCACTACCGCTCGCCCACACATTGTCATTATGTCAACCCCGGAGTCACCTAGTGCAG,4100 fluorescence intensity (a.u.)
12,GTGCCGGCTTCGCATGCGTCAGGCGGGCAAACGGGTAGGTCGGAGTCACCTAGTGCAG,3420 fluorescence intensity (a.u.)
13,CAACATTATCCCGAAGCGTCCCATCCACGCGACGCGGCACCGGAGTCACCTAGTGCAG,3540 fluorescence intensity (a.u.)
14,GATCAAACCAGCGGCAGATGAGGGCGCAAAGAGAAAGAGCCGGAGTCACCTAGTGCAG,4210 fluorescence intensity (a.u.)
15,ACGCAAGGACGTCACTGCGGGTGCAGTATTAACACGCGGCCGGAGTCACCTAGTGCAG,4860 fluorescence intensity (a.u.)
16,CGGTGATCGGGCACCTCCACCTCATGTCCGGCATGCCGCACGGAGTCACCTAGTGCAG,3420 fluorescence intensity (a.u.)
17,GACAAATGACTACAATAACCCAATTTAATAAACACAGTACCGGAGTCACCTAGTGCAG,3540 fluorescence intensity (a.u.)
18,ACTGGTAACGGCTAGTCCGCCGCGCCACGAAACCTCCAAACGGAGTCACCTAGTGCAG,21400 fluorescence intensity (a.u.)
19,GCGTACGGCTGCCTAATGCAGAGCCTGACGTGGCGAGCTGCGGAGTCACCTAGTGCAG,17400 fluorescence intensity (a.u.)
20,AAGTGCTTTCAGCTGACTCCCGATGTTTATACATTTGCCACGGAGTCACCTAGTGCAG,3180 fluorescence intensity (a.u.)
21,TAGACTAATTTTCGAAAGTTAAAACATTTGATGTCACGCACGGAGTCACCTAGTGCAG,4050 fluorescence intensity (a.u.)
